Counter-ions that a name gives are not always drawn. The list shows a part of the results. The calls rarely recur for the same compound in another form.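 Kinases were expressed as nanoluciferase fusions in K562 cells and luminescence was read every 4 h between 2 and 18 h as percent of control, DMSO set to 100% and a positive control to 0%. A time point counts as decreased when the signal drops significantly (2 sigma). The hit call is the authors' own, does not follow from the count of time points alone, and its rule is not shown.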
Experiments:
Assay in all cases: kinase-Nluc reporter destabilization hit call (1 = scored as downregulated) (binary); higher = compound decreases kinase abundance
Details in all cases: K562; 2-18 h
BRAF_V600E = test system: BRAF_V600E
BTK = BTK (UniProt Q06187)
CAMK2A = CAMK2A (UniProt Q9UQM7)
CAMK2G = CAMK2G (UniProt Q13555)
CDK10 = CDK10 (UniProt Q15131)
CDK2 = CDK2 (UniProt P24941)
CDK3 = CDK3 (UniProt Q00526)
CDK4 = CDK4 (UniProt P11802)
CDK5 = CDK5 (UniProt Q00535)
CDK6 = CDK6 (UniProt Q00534)
CDK7 = CDK7 (UniProt P50613)
CDK9 = CDK9 (UniProt P50750)
CHEK2 = CHEK2 (UniProt O96017)
CSF1R = CSF1R (UniProt P07333)
CSK = CSK (UniProt P41240)
CSNK1A1 = CSNK1A1 (UniProt P48729)
CSNK1D = CSNK1D (UniProt P48730)
DDR1 = DDR1 (UniProt Q08345)
DYRK1B = DYRK1B (UniProt Q9Y463)
DYRK2 = DYRK2 (UniProt Q92630)

Chains of the proteins cited; added tags and fusions are not shown. Lines headed by an entry give the natural chain unless they say otherwise; changes in a name come on top.
UniProt Q9UQM7, whole entry: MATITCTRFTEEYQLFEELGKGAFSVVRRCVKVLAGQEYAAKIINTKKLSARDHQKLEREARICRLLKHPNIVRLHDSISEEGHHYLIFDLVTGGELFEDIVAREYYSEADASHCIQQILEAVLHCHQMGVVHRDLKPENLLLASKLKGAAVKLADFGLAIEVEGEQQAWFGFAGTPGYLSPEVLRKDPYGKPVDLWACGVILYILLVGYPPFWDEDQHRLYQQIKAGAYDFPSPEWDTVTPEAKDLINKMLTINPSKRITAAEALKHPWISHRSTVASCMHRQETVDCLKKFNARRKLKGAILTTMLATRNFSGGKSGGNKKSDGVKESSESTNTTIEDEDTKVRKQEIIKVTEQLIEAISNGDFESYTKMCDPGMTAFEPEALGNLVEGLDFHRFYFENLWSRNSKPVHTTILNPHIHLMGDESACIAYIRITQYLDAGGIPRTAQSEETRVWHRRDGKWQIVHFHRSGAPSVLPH
UniProt Q13555: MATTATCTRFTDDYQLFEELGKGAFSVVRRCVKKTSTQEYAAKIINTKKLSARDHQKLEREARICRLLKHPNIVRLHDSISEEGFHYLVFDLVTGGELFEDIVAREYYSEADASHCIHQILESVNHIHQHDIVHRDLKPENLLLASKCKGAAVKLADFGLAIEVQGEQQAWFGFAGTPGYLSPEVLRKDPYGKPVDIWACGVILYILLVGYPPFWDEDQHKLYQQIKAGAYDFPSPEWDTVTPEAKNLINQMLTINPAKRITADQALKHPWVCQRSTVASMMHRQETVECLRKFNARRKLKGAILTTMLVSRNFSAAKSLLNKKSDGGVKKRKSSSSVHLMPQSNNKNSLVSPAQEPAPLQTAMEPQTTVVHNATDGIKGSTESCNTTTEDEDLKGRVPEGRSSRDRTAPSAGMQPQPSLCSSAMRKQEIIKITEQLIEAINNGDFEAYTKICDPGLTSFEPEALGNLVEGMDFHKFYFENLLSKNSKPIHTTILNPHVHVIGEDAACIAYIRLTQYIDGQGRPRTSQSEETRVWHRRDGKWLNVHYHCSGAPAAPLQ
UniProt Q15131: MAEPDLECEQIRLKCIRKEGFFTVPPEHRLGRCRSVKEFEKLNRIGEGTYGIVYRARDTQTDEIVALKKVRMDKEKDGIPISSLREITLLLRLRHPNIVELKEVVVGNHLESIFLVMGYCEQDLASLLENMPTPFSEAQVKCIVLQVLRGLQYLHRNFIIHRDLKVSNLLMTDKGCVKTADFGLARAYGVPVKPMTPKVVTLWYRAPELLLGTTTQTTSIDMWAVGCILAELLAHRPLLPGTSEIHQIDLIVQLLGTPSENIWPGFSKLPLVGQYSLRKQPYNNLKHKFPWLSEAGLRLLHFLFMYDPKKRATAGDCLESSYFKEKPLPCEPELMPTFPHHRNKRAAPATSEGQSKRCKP
UniProt Q00526: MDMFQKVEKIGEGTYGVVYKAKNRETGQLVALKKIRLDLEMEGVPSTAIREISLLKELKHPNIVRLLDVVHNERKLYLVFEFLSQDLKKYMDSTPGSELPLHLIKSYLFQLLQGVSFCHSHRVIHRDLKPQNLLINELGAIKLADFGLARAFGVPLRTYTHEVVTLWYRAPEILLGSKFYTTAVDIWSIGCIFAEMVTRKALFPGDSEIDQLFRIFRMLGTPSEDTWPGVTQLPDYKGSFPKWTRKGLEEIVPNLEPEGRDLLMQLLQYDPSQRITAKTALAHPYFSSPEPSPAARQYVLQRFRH
UniProt P11802: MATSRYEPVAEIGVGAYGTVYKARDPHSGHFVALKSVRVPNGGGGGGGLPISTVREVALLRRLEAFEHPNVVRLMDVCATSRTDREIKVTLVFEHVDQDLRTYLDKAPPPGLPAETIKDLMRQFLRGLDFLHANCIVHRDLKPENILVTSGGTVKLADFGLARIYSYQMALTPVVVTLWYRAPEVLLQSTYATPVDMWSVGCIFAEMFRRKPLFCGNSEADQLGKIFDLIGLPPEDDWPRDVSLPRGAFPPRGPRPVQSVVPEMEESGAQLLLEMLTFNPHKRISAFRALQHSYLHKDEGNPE
UniProt Q00535, whole entry, looked up: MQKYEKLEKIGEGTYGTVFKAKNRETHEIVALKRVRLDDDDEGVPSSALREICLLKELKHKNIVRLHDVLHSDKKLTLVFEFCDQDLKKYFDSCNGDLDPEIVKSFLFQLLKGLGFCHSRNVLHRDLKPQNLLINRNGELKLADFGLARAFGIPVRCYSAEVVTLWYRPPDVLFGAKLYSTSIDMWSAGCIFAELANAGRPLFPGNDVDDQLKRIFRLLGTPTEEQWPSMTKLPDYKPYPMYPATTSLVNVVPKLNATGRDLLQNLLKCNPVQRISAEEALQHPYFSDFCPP
UniProt P50613: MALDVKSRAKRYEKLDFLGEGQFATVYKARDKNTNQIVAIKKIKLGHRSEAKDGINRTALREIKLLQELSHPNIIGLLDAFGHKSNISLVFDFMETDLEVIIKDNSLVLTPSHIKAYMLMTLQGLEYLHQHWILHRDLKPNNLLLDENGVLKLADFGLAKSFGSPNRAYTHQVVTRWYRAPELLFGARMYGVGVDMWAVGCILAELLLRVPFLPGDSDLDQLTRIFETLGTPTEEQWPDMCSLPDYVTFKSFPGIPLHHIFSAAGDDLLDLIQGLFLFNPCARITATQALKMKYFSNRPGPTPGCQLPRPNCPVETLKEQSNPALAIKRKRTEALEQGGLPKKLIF
UniProt O96017, whole entry: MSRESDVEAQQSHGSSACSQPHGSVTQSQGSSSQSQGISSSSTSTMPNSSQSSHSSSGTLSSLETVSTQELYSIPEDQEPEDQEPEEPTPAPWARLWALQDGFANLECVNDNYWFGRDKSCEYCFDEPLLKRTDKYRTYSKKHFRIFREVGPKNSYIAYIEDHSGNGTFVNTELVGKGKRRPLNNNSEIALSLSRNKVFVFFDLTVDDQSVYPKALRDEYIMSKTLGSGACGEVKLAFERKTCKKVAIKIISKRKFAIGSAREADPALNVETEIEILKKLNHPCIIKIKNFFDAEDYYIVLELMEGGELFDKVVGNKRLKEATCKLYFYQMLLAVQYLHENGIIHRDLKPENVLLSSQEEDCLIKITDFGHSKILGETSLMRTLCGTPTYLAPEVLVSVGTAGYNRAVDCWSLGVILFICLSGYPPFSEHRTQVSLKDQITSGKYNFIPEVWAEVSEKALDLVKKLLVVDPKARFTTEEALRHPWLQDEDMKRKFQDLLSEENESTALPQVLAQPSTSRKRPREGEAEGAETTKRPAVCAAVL
UniProt P07333, whole entry: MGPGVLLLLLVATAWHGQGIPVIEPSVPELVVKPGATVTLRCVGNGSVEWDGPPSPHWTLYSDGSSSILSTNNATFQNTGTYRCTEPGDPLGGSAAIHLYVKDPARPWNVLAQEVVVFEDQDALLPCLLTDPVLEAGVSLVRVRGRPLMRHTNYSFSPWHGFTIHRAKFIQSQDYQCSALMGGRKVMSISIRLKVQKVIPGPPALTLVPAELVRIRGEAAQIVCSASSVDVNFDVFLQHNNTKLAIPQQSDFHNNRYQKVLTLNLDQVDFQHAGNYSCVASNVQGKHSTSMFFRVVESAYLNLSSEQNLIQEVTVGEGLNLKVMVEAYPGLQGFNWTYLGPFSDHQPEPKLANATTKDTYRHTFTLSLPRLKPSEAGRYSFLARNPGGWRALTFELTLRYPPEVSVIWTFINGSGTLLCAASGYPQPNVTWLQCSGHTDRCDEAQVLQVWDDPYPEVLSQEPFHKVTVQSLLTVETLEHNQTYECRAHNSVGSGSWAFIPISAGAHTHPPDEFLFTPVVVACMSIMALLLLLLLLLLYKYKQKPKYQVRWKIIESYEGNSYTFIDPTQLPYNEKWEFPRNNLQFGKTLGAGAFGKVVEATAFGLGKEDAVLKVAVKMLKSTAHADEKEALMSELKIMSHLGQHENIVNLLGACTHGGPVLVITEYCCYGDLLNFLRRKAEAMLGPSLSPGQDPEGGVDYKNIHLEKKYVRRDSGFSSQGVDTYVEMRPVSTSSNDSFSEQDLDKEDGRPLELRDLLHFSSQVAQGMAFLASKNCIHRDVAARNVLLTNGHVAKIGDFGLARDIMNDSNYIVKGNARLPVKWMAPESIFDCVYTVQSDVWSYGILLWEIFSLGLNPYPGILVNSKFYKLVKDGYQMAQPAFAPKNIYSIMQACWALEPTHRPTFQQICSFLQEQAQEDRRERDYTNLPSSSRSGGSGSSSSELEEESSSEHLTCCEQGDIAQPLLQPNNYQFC
UniProt P41240: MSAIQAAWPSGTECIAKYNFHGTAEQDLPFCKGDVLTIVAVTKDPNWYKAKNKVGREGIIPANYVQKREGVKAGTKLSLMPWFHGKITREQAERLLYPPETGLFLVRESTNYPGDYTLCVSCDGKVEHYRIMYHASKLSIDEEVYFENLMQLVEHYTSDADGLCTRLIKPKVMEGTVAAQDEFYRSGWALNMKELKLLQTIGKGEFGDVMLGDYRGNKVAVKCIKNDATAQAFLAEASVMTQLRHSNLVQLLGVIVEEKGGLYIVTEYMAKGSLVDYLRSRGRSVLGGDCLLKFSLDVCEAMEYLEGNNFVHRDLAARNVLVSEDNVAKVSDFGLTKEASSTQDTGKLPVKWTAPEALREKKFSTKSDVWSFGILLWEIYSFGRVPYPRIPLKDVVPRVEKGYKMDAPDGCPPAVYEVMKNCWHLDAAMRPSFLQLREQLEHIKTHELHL
UniProt P48730: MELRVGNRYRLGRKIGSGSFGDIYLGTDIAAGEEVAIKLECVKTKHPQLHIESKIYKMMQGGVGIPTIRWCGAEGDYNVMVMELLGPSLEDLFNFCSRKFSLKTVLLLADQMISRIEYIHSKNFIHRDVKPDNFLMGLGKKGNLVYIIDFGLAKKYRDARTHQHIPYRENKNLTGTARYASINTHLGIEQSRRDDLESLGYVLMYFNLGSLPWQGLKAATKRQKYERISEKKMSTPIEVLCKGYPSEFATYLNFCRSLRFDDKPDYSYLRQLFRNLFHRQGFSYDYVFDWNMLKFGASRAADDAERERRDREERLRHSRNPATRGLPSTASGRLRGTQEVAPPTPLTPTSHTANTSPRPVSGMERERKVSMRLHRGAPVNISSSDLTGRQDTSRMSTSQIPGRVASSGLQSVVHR
UniProt Q08345: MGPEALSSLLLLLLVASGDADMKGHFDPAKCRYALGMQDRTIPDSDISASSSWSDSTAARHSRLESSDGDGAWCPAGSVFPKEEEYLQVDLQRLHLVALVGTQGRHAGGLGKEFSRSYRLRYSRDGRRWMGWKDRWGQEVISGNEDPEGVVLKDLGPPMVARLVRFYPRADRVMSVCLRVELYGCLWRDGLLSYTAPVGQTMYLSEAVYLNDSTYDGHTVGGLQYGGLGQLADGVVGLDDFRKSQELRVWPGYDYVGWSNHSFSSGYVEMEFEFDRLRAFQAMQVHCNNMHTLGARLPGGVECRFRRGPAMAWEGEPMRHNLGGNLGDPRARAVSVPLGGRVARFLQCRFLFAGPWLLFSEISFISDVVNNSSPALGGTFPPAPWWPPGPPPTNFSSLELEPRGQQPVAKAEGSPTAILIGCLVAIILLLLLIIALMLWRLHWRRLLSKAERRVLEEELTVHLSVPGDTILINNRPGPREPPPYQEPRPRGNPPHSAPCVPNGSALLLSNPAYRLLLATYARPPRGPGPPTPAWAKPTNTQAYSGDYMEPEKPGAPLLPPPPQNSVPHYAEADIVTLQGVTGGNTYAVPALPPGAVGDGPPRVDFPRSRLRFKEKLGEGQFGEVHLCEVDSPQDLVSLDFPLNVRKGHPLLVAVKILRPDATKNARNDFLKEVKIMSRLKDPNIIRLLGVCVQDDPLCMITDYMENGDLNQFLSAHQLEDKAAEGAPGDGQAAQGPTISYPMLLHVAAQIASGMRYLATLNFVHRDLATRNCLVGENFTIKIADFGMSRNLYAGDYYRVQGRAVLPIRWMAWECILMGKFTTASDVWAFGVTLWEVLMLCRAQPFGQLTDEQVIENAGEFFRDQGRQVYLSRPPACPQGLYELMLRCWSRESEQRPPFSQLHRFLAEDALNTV
UniProt Q92630: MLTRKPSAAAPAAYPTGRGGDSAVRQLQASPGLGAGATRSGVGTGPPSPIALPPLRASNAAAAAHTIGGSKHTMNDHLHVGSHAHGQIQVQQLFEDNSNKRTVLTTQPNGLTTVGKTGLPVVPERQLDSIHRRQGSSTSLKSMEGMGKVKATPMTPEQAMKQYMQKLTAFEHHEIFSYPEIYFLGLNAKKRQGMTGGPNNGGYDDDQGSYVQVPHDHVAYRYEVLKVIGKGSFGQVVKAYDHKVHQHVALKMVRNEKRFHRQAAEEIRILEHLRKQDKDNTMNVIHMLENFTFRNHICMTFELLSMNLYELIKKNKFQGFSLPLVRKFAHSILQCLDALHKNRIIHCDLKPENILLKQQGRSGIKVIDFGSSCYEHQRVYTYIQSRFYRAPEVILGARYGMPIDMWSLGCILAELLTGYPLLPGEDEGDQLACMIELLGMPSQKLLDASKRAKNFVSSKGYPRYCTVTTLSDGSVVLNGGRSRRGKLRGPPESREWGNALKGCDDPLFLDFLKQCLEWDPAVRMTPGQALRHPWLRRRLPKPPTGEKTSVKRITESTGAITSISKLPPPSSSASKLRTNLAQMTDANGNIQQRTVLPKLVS

Measured: kinase-Nluc reporter destabilization hit call

O=C1Nc2ccccc2/C1=C/c1ccc(F)cc1 (10 µM)
inactive: BRAF_V600E 0 | BTK 0 | CAMK2A 0 | CAMK2G 0 | CDK10 = 0 | CDK2 = 0 | CDK3 = 0 | CDK4 = 0 | CDK5 = 0 | CDK6 = 0 | CDK7 = 0 | CDK9 = 0 | CHEK2 = 0 | CSF1R 0 | CSK 0 | CSNK1A1 = 0 | CSNK1D 0 | DDR1 = 0 | DYRK1B 0 | DYRK2 = 0

O=c1cc(-c2ccccc2)oc2c(O)c(O)ccc12 [7,8-Dihydroxyflavone] (10 µM)
inactive: BRAF_V600E 0 | BTK 0 | CAMK2A 0 | CAMK2G 0 | CDK10 = 0 | CDK2 = 0 | CDK3 = 0 | CDK4 = 0 | CDK5 = 0 | CDK6 = 0 | CDK7 = 0 | CDK9 = 0 | CHEK2 = 0 | CSF1R 0 | CSK 0 | CSNK1A1 = 0 | CSNK1D 0 | DDR1 = 0 | DYRK1B 0 | DYRK2 = 0

CN1CCN(C(=O)c2ccc(-c3ccc4c(C=O)c(O)ccc4c3)s2)CC1 (2.5 µM)
inactive: BRAF_V600E 0 | BTK 0 | CAMK2A 0 | CAMK2G 0 | CDK10 = 0 | CDK2 = 0 | CDK3 = 0 | CDK4 = 0 | CDK5 = 0 | CDK6 = 0 | CDK7 = 0 | CDK9 = 0 | CHEK2 = 0 | CSF1R 0 | CSK 0 | CSNK1A1 = 0 | CSNK1D 0 | DDR1 = 0 | DYRK1B 0 | DYRK2 = 0

O=C(c1ccc(-c2ccc(Cl)cc2)o1)N(Cc1ccccn1)c1ccc(N2CCNCC2)cc1 [MK2-IN-1 (hydrochloride)] (10 µM)
inactive: BRAF_V600E 0 | BTK 0 | CAMK2A 0 | CAMK2G 0 | CDK2 = 0 | CDK3 = 0 | CDK4 = 0 | CDK5 = 0 | CDK6 = 0 | CDK7 = 0 | CDK9 = 0 | CHEK2 = 0 | CSF1R 0 | CSK 0 | CSNK1A1 = 0 | CSNK1D 0 | DDR1 = 0 | DYRK1B 0 | DYRK2 = 0
active: CDK10 = 1

C=CC(=O)N1CC[C@H](n2nc(C#Cc3cc(OC)cc(OC)c3)c3c(N)ncnc32)C1 [Futibatinib] (10 µM)
inactive: BRAF_V600E 0 | BTK 0 | CAMK2A 0 | CAMK2G 0 | CDK10 = 0 | CDK2 = 0 | CDK3 = 0 | CDK4 = 0 | CDK5 = 0 | CDK6 = 0 | CDK7 = 0 | CDK9 = 0 | CHEK2 = 0 | CSF1R 0 | CSK 0 | CSNK1A1 = 0 | CSNK1D 0 | DDR1 = 0 | DYRK1B 0 | DYRK2 = 0

COc1cc2nc(C)nc(N[C@H](C)c3cc(N)cc(C(F)(F)F)c3)c2cc1O[C@H]1CCOC1 (10 µM)
inactive: BRAF_V600E 0 | BTK 0 | CAMK2A 0 | CAMK2G 0 | CDK10 = 0 | CDK2 = 0 | CDK3 = 0 | CDK4 = 0 | CDK5 = 0 | CDK6 = 0 | CDK7 = 0 | CDK9 = 0 | CHEK2 = 0 | CSF1R 0 | CSK 0 | CSNK1A1 = 0 | CSNK1D 0 | DDR1 = 0 | DYRK1B 0 | DYRK2 = 0

2 neighbouring entries out of the list so far, for reference:
CN1CCN(C(=O)c2ccc(-c3ccc4c(C=O)c(O)ccc4c3)s2)CC1 (2.5 µM)
inactive: BRAF_V600E 0 | BTK 0 | CAMK2A 0 | CAMK2G 0 | CDK10 = 0 | CDK2 = 0 | CDK3 = 0 | CDK4 = 0 | CDK5 = 0 | CDK6 = 0 | CDK7 = 0 | CDK9 = 0 | CHEK2 = 0 | CSF1R 0 | CSK 0 | CSNK1A1 = 0 | CSNK1D 0 | DDR1 = 0 | DYRK1B 0 | DYRK2 = 0

O=C(c1ccc(-c2ccc(Cl)cc2)o1)N(Cc1ccccn1)c1ccc(N2CCNCC2)cc1 [MK2-IN-1 (hydrochloride)] (10 µM)
inactive: BRAF_V600E 0 | BTK 0 | CAMK2A 0 | CAMK2G 0 | CDK2 = 0 | CDK3 = 0 | CDK4 = 0 | CDK5 = 0 | CDK6 = 0 | CDK7 = 0 | CDK9 = 0 | CHEK2 = 0 | CSF1R 0 | CSK 0 | CSNK1A1 = 0 | CSNK1D 0 | DDR1 = 0 | DYRK1B 0 | DYRK2 = 0
active: CDK10 = 1

Next part:

CCN(CCCOc1ccc2c(Nc3cc(CC(=O)Nc4cccc(F)c4)[nH]n3)ncnc2c1)CCOP(=O)(O)O [Barasertib] (10 µM)
inactive: BRAF_V600E 0 | BTK 0 | CAMK2A 0 | CAMK2G 0 | CDK10 = 0 | CDK2 = 0 | CDK3 = 0 | CDK4 = 0 | CDK6 = 0 | CDK7 = 0 | CDK9 = 0 | CHEK2 = 0 | CSF1R 0 | CSK 0 | CSNK1A1 = 0 | CSNK1D 0 | DDR1 = 0 | DYRK1B 0 | DYRK2 = 0

COc1ccc2c(NC(=O)Nc3cccc(C(F)(F)F)n3)ccnc2c1 (10 µM)
inactive: BRAF_V600E 0 | BTK 0 | CAMK2A 0 | CAMK2G 0 | CDK10 = 0 | CDK2 = 0 | CDK3 = 0 | CDK4 = 0 | CDK5 = 0 | CDK6 = 0 | CDK7 = 0 | CDK9 = 0 | CHEK2 = 0 | CSF1R 0 | CSK 0 | DDR1 = 0 | DYRK1B 0 | DYRK2 = 0

COCCNCCc1cccc(Nc2ncc3c(n2)-c2ccccc2[C@H](c2ccccc2F)C3)c1 [Derazantinib] (2.5 µM)
inactive: BRAF_V600E 0 | BTK 0 | CAMK2A 0 | CAMK2G 0 | CDK10 = 0 | CDK2 = 0 | CDK3 = 0 | CDK4 = 0 | CDK5 = 0 | CDK6 = 0 | CDK7 = 0 | CDK9 = 0 | CHEK2 = 0 | CSK 0 | CSNK1A1 = 0 | CSNK1D 0 | DDR1 = 0 | DYRK1B 0 | DYRK2 = 0

COc1cc(Nc2ncc3c(n2)-c2ccc(Cl)cc2C(c2c(F)cccc2OC)=NC3)ccc1C(=O)O [Alisertib] (2.5 µM)
inactive: BRAF_V600E 0 | BTK 0 | CAMK2A 0 | CAMK2G 0 | CDK10 = 0 | CDK2 = 0 | CDK3 = 0 | CDK4 = 0 | CDK5 = 0 | CDK6 = 0 | CDK7 = 0 | CDK9 = 0 | CHEK2 = 0 | CSF1R 0 | CSK 0 | CSNK1D 0 | DDR1 = 0 | DYRK1B 0 | DYRK2 = 0

COc1ccc(F)c(F)c1C(=O)c1cnc(NC2CCN(S(C)(=O)=O)CC2)nc1N (2.5 µM)
inactive: BRAF_V600E 0 | BTK 0 | CAMK2A 0 | CAMK2G 0 | CDK10 = 0 | CDK3 = 0 | CDK4 = 0 | CDK5 = 0 | CDK6 = 0 | CDK7 = 0 | CDK9 = 0 | CHEK2 = 0 | CSF1R 0 | CSK 0 | CSNK1A1 = 0 | CSNK1D 0 | DDR1 = 0 | DYRK1B 0 | DYRK2 = 0

COc1cc2ncnc(Nc3cccc(Cl)c3F)c2cc1OC(=O)N1CCN(C)C[C@H]1C [Zorifertinib] (10 µM)
inactive: BRAF_V600E 0 | BTK 0 | CAMK2A 0 | CAMK2G 0 | CDK10 = 0 | CDK2 = 0 | CDK3 = 0 | CDK4 = 0 | CDK6 = 0 | CDK7 = 0 | CDK9 = 0 | CHEK2 = 0 | CSF1R 0 | CSK 0 | CSNK1A1 = 0 | CSNK1D 0 | DDR1 = 0 | DYRK1B 0 | DYRK2 = 0

COc1cc2ncnc(Nc3ccc(O)cc3)c2cc1OC (10 µM)
inactive: BRAF_V600E 0 | BTK 0 | CAMK2A 0 | CAMK2G 0 | CDK10 = 0 | CDK3 = 0 | CDK4 = 0 | CDK5 = 0 | CDK6 = 0 | CDK7 = 0 | CDK9 = 0 | CHEK2 = 0 | CSF1R 0 | CSK 0 | CSNK1A1 = 0 | CSNK1D 0 | DDR1 = 0 | DYRK1B 0 | DYRK2 = 0

Nc1ncnc2c1c(-c1cccc(OCc3ccccc3)c1)cn2C1CC(CN2CCCC2)C1 (stereo unspecified) (2.5 µM)
inactive: BRAF_V600E 0 | BTK 0 | CAMK2A 0 | CAMK2G 0 | CDK10 = 0 | CDK2 = 0 | CDK3 = 0 | CDK4 = 0 | CDK6 = 0 | CDK7 = 0 | CDK9 = 0 | CHEK2 = 0 | CSF1R 0 | CSK 0 | CSNK1A1 = 0 | CSNK1D 0 | DDR1 = 0 | DYRK1B 0 | DYRK2 = 0

c1cc(OCCN2CCCCC2)cc(-c2n[nH]c3ccc(-c4nnc[nH]4)cc23)c1 [CC-401 (hydrochloride)] (10 µM)
inactive: BRAF_V600E 0 | BTK 0 | CAMK2A 0 | CAMK2G 0 | CDK10 = 0 | CDK3 = 0 | CDK4 = 0 | CDK5 = 0 | CDK6 = 0 | CDK7 = 0 | CDK9 = 0 | CHEK2 = 0 | CSF1R 0 | CSK 0 | CSNK1A1 = 0 | CSNK1D 0 | DDR1 = 0 | DYRK1B 0 | DYRK2 = 0

C[C@H](CN(C)C)Oc1nc(Nc2cc3cccc(Cl)c3cn2)cnc1C#N (10 µM)
inactive: BRAF_V600E 0 | BTK 0 | CAMK2A 0 | CAMK2G 0 | CDK10 = 0 | CDK2 = 0 | CDK3 = 0 | CDK4 = 0 | CDK5 = 0 | CDK6 = 0 | CDK7 = 0 | CDK9 = 0 | CSF1R 0 | CSK 0 | CSNK1A1 = 0 | CSNK1D 0 | DDR1 = 0 | DYRK1B 0 | DYRK2 = 0

COc1cc2ncn(-c3cc(OCc4ccccc4C(F)(F)F)c(C(N)=O)s3)c2cc1OC (10 µM)
inactive: BRAF_V600E 0 | BTK 0 | CAMK2A 0 | CAMK2G 0 | CDK10 = 0 | CDK2 = 0 | CDK3 = 0 | CDK4 = 0 | CDK5 = 0 | CDK6 = 0 | CDK7 = 0 | CDK9 = 0 | CHEK2 = 0 | CSK 0 | CSNK1A1 = 0 | CSNK1D 0 | DDR1 = 0 | DYRK1B 0 | DYRK2 = 0

NC(=O)c1ccc(-c2nc(-c3ccccn3)c(-c3ccc4c(c3)OCO4)[nH]2)cc1 (10 µM)
inactive: BRAF_V600E 0 | BTK 0 | CAMK2A 0 | CAMK2G 0 | CDK10 = 0 | CDK3 = 0 | CDK4 = 0 | CDK5 = 0 | CDK6 = 0 | CDK7 = 0 | CDK9 = 0 | CHEK2 = 0 | CSF1R 0 | CSK 0 | CSNK1A1 = 0 | CSNK1D 0 | DDR1 = 0 | DYRK1B 0 | DYRK2 = 0

CN(c1ncccc1CNc1nc(Nc2ccc3c(c2)CC(=O)N3)ncc1C(F)(F)F)S(C)(=O)=O (2.5 µM)
inactive: BRAF_V600E 0 | BTK 0 | CAMK2A 0 | CAMK2G 0 | CDK10 = 0 | CDK2 = 0 | CDK3 = 0 | CDK4 = 0 | CDK5 = 0 | CDK6 = 0 | CDK7 = 0 | CDK9 = 0 | CHEK2 = 0 | CSF1R 0 | CSK 0 | CSNK1D 0 | DDR1 = 0 | DYRK1B 0 | DYRK2 = 0
